Experimental data: PubChem BioAssay AID686937 (Drosophila RNAi Screening Center, 2013)
The deposit covers about 23,000 reagents; shown is an unselected part of those with a known target gene and a result. 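Reduced-secretion tags in replicate 1 do not always agree with the z-scores; no criterion for assigning the tags was given.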 Names joined by + are all predicted targets of the reagent. Not all columns of the deposit are shown. Not given: the amount of reagent.

- Purpose: 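Genes whose loss weakens secretory pathway function in fly cells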 (primary screen)
- System: Drosophila S2 cells expressing secreted horseradish peroxidase
- Reagents: long dsRNA against Drosophila genes
- Timing: about 5.5 days (5 days dsRNA, then 12 h reporter induction)
- Conditions: reporter expression induced after 5 days of dsRNA, read 12 h later; inducer not stated
- Measurement: 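After 5 days of dsRNA and 12 h of reporter induction, medium peroxidase read by chemiluminescence and scored as per-plate z-score; higher values mean more reporter released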
- Reading the numbers: z-score: higher = more reporter secreted into medium

| gene | dsRNA | z-score, replicate 1 | z-score, replicate 2 |
| --- | --- | --- | --- |
| CG10347 | DRSC19352 | 0.39 | 0.43 |
| RpL17 (Ribosomal protein L17) | DRSC18293 | -3.4 | -3.03 |
| CG13202 | DRSC06326 | 0.38 | 0.31 |
| CG14570 | DRSC11731 | 0.14 | 0.48 |
| alpha-Est7 (alpha-Esterase-7) | DRSC12619 | 0.74 | 0.56 |
| Ir94h (Ionotropic receptor 94h) | DRSC15232 | 0.01 | 0.15 |
| CG17834 | DRSC02637 | -0.85 | 0.31 |
| CG31224 | DRSC15272 | 0.67 | 0.64 |
| CG31224 | DRSC16290 | 0.55 | 0.28 |
| gem (gemini) | DRSC06093 | 0.46 | 0.55 |
| gem (gemini) | DRSC06847 | 0.24 | -0.13 |
| CG2209 | DRSC19843 | 0.33 | -1.47 |
| endos (endosulfine) | DRSC10658 | 0.59 | 0.18 |
| Pfdn2 (Prefoldin 2) | DRSC10618 | 0.19 | 0.26 |
| peng (penguin) | DRSC20583 | 0.31 | 0.39 |
| Tmep (Transmembrane endosomal protein) | DRSC08215 | 0.13 | 0.41 |
| Flo1 (Flotillin 1) | DRSC07427 | 0.41 | 0.38 |
| CG15412 | DRSC00427 | 0.3 | 0.11 |
| alphaTub67C (alpha-Tubulin at 67C) | DRSC11321 | -1.37 | -2.02 |
| CG32591 | DRSC19063 | -0.48 | -0.48 |
| tfc (triforce) | DRSC07953 | 0.7 | 0.41 |
| tfc (triforce) | DRSC07954 | -0.15 | 0.19 |
| tfc (triforce) | DRSC08626 | -0.57 | -0.11 |
| tfc (triforce) | DRSC21704 | 1.82 | 1.01 |
| CG31391 | DRSC16047 | 0.2 | -1.22 |
| eIF2Bbeta (eukaryotic translation initiation factor 2B subunit beta) | DRSC18465 | -0.05 | -1.22 |
| Nprl2 (Nitrogen permease regulator-like 2) | DRSC20153 | 0.39 | 0.51 |
| Reepl1 (Receptor accessory protein like 1) | DRSC19418 | 0.41 | 0.74 |
| icln | DRSC07630 | 0.19 | 0.27 |
| CG15022 | DRSC08476 | 0.35 | -0.88 |
| CG12560 | DRSC02174 | 0.5 | 0.3 |
| CG13992 | DRSC02324 | 0.02 | 0.29 |
| CG7352 | DRSC16233 | 0.23 | 0.25 |
| EbpIII (Ejaculatory bulb protein III) | DRSC04638 | 0.68 | -0.64 |
| kel (kelch) | DRSC03554 | 0.26 | 0.17 |
| CG14182 | DRSC10181 | 0.22 | 0.33 |
| CR43670 + CR43671 + CR43669 | DRSC01554 | 0.43 | 0.56 |
| CR43670 + CR43671 + CR43669 | DRSC01556 | 0.29 | 0.39 |
| CG31360 | DRSC13255 | 0.24 | 0.29 |
| primo-2 + primo-1 | DRSC16511 | 0.43 | 0.51 |
| CG17717 | DRSC18130 | 0.23 | -0.18 |
| bero (belly roll) | DRSC03211 | 0.18 | 0.19 |
| SmydA-2 (SET and MYND domain containing, arthropod-specific, member 2) | DRSC10296 | 0.48 | 0.43 |
| Rrp46 | DRSC15537 | -1.82 | -1.2 |
| CG2889 | DRSC18236 | 0.41 | 0.32 |
| prod (proliferation disrupter) | DRSC07667 | -1.95 | -2.95 |
| Spn28B (Serpin 28B) | DRSC02982 | -0.3 | 0.22 |
| CG9945 | DRSC07347 | -0.06 | 0.37 |
| CG18213 | DRSC15316 | 0.07 | 0.24 |
| CG18635 | DRSC06780 | 0.75 | 0.57 |
| MtnC (Metallothionein C) | DRSC22879 | -0.41 | 0.55 |
| SNCF (SoxNeuro Co-Factor) | DRSC10115 | -0.01 | 0 |
| Ppm1 | DRSC08260 | 0.59 | 0.39 |
| CG31627 | DRSC22143 | -0.18 | 0.21 |
| CG15563 | DRSC15101 | 0 | 0.24 |
| Abi (Abelson interacting protein) | DRSC14099 | 0.06 | -0.24 |
| Mpp6 (M-phase phosphoprotein 6) | DRSC03169 | 0.17 | 0.2 |
| CG4041 | DRSC18339 | 0.08 | 0.35 |
| CG18467 | DRSC06758 | -1.54 | 0.45 |
| CG1722 | DRSC20547 | 0.3 | 0.21 |
| CG33136 | DRSC05744 | 0.23 | 0.32 |
| CG10587 | DRSC11627 | 0.24 | 0.32 |
| CG8500 | DRSC16434 | -0.01 | -0.1 |
| Hsp67Ba (Heat shock gene 67Ba) | DRSC11191 | -0.07 | 0.14 |
| CG9287 | DRSC03186 | -3.48 | 0.31 |
| CG9287 | DRSC22790 | -0.01 | 0 |
| dpr18 (defective proboscis extension response 18) | DRSC19606 | -0.05 | 0.29 |
| Idgf2 (Imaginal disc growth factor 2) | DRSC03350 | 0.49 | 0.27 |
| CG34205 | DRSC04149 | -0.04 | 0.4 |
| CG34205 | DRSC22823 | 0.86 | 0.55 |
| CG11226 | DRSC11639 | 0.28 | 0.23 |
| Cul5 (Cullin 5) | DRSC14723 | 0.21 | 0.33 |
| CG14431 | DRSC17925 | 0.25 | 0.66 |
| CG14431 | DRSC17926 | -4.11 | -2.76 |
| Tmem131 (Transmembrane protein 131) | DRSC07154 | 0.35 | 0.31 |
| CG31954 | DRSC00580 | 0.26 | 0.22 |
| COX4 (Cytochrome c oxidase subunit 4) | DRSC02091 | -0.42 | -0.97 |
| CG33301 | DRSC02778 | -0.19 | 0.22 |
| slif (slimfast) | DRSC11635 | 0.32 | 0.41 |
| CG11106 | DRSC19381 | 0.33 | 0.52 |
| wat (waterproof) | DRSC14854 | 0.47 | 0.52 |
| CG3819 | DRSC10378 | 0.25 | 0.33 |

Taken from above:
Under “z-score, replicate 1”, SNCF (SoxNeuro Co-Factor) [DRSC10115] is entered as -0.01
Entry for COX4 (Cytochrome c oxidase subunit 4) [DRSC02091] under “z-score, replicate 2”: -0.97
For “z-score, replicate 1”, eIF2Bbeta (eukaryotic translation initiation factor 2B subunit beta) [DRSC18465] reads -0.05
Under “z-score, replicate 1”, CG18635 [DRSC06780] reads 0.75
Under “z-score, replicate 2”, primo-2 + primo-1 [DRSC16511] is entered as 0.51
Abi (Abelson interacting protein) [DRSC14099], z-score, replicate 2 = -0.24
